# At least one compound was matched to its structure with a doubt left.
# System: HIV-1 IIIB
# Experiment: HIV reverse transcriptase activity / HIV replication in infected MT-4 and H9 human lymphocyte cell-lines
# Assay type: cell-based, HIV-1 strain IIIB
# Procedure: The HIV reverse transcriptase inhibiting activity of compounds of formula (I) of the invention was measured by the method of Hoffman, A. D. et al. described in Virology, Vol. 147, pp. 326-335, 1985.
# The measurement results are shown for the model compound 5,7,4'-trihydroxy-4,3',5'-trimethyl-flavilium chloride (hereinafter referred to as "BIOGAL 6") and prepared as described in Example 1 below.
# The active agents were tested on MT-4 and H9 human lymphocyte cell-lines infected with the strain HIV-1 IIIB. The cells were infected with 20 TCID50 of the HIV-1 virus.
# […] The active agent was first added to the culture 4 hours before the infection, and then 24, and 48 hours after infection. HIV infected, untreated MT-4 and H9 cells were used, as well as uninfected, untreated cells as a control. The AZT-control was zidovudine (ZDU) sold by Burroughs Wellcome Company under the name Retrovir.
# Reverse transcriptase inhibiting activity was determined on 500 μl aliquots from supernatant of the culture and their virus concentration was measured. The results are given in cpm/cm^3 indicating ^3 H-TTP.
compound,measurement,setting,value
"Cc1cn([C@H]2C[C@H](N=[N+]=[N-])[C@@H](CO)O2)c(=O)[nH]c1=O [AZT, azidothymidine, reference compound]",effect on HIV replication (in words),5 μg/cm^3,"suppressed HIV proliferation at a concentration of 5 μg/cm^3, but this effect did not last as long as the effect of BIOGAL-6"
same,"effect on HIV production (in words), FIG. 1","5 μg/cm^3, FIG. 1",only delayed the HIV production but did not change the proliferation rate
same,duration of effect on HIV (in words),even at higher concentrations (0.1-5 μg/cm^3 tested),only a temporary effect

# Reference: patent US5753695A, “Flavilium compounds and method of using” (Biogal Gyogyszergyar RT, priority 1992, dated 1998)
